Measurements as given in patent US20120252119A1, “METHODS FOR THE COLLECTION AND MATURATION OF OOCYTES” (priority 2009, published 2012).
For at least one compound, name, drawing or mass did not settle the structure.

Tested on: cAMP content of the whole COCs
Assay: cAMP content of bovine COCs, radioimmunoassay
Assay type: cell-based
Description: Oocytes were aspirated with their cumulus vestments intact (COCs). A subset of the COCs were denuded of their cumulus vestment prior to assay (DO). Aspiration and subsequent selection procedures (pre-IVM phase) were performed for 2 hours where oocytes (COCs and DOs) were processed in various media (termed “pre-IVM phase media” or “pre-IVM media”). These included processing of oocytes either in follicular fluid, or in two types of collection medium. […] Cyclic AMP content of COCs and denuded oocytes (DOs), i.e. those oocytes cultured as COCs but denuded of their cumulus vestment prior to assay, were measured using a radioimmunoassay method described and validated previously (Reddoch et al., 1986, Endocrinology 119: 879-886). […] Briefly, supernatants were collected, evaporated, resuspended in assay buffer (50 mM sodium acetate, pH 5.5) and acetylated by the addition of triethylamine (AJAX Chemicals, Sydney, Australia) and acetic anhydride (BDH Laboratory Supplies, Poole, England) 2:1 v/v. cAMP was measured in duplicates after appropriate dilution. ^125I-labelled cAMP (specific activity of 2175 Ci/mM) and cAMP antibody (as prepared by Reddoch et al supra) were added to samples and left overnight at 4° C. […] The supernatant was removed and the pellet dried and counted using a gamma counter. […]

**Q.** `C=C[C@@]1(C)CC(=O)[C@]2(O)[C@@]3(C)[C@@H](O)CCC(C)(C)[C@@H]3[C@H](O)[C@H](OC(C)=O)[C@@]2(C)O1` [forskolin] was tested. Which “COC cAMP levels during pre-IVM” value (agent alone, up to 2 hours, FIG. 2) did it give?
**A.** Its value is “maintained cAMP levels for 2 hours”.

**Q.** What about the “cAMP levels within COCs” value (forskolin without IBMX, 2 hours of pre-IVM, FIG. 1A) of the same compound?
**A.** The value was “significantly elevated”.
